These are yes or no findings as the source states them, for the method shown. In cells and extracts the contact can be indirect.

Protein sequences, listed by entry. Tags and fused reporters are not part of them.
UniProt P79922: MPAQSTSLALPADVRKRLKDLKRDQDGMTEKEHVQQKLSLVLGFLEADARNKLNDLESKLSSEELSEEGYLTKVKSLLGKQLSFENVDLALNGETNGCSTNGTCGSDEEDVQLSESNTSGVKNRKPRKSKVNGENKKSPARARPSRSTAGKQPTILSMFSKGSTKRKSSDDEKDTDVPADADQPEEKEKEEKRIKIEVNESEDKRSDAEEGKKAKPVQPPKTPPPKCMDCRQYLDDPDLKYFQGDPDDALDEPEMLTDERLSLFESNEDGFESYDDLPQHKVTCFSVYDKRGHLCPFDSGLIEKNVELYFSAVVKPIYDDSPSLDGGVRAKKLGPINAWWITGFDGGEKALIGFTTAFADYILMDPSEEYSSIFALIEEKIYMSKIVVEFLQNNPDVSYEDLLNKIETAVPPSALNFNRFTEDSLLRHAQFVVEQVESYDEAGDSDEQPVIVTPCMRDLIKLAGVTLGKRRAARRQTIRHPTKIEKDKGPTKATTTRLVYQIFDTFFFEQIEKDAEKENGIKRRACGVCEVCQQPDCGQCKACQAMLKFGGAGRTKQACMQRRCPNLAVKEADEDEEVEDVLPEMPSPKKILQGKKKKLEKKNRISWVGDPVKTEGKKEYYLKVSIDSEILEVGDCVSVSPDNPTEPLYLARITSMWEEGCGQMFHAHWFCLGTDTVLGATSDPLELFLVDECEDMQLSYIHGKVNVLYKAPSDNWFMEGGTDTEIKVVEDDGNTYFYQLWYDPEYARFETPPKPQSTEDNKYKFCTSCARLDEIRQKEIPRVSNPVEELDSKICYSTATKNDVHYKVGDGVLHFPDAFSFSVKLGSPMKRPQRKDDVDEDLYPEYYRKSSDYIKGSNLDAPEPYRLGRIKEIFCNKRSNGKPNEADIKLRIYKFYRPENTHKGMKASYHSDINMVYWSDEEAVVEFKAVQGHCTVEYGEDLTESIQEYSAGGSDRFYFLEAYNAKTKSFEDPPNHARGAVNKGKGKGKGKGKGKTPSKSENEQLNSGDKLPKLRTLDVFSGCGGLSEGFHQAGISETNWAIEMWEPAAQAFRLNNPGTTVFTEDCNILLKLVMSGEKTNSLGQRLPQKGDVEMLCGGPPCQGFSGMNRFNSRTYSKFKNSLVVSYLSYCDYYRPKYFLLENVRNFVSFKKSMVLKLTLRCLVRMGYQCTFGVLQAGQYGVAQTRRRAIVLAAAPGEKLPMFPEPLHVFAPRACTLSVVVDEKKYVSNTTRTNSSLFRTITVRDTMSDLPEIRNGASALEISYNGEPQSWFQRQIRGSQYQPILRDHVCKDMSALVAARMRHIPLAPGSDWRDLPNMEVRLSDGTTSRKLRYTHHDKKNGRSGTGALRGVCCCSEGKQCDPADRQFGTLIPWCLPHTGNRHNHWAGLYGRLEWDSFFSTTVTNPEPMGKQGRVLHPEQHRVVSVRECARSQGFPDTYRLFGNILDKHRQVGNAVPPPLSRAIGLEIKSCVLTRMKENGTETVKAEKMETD

The target in experiment [1] is FLAG-tagged wild-type recombinant Xenopus Dnmt1 (Xenopus) (UniProt P79922). Kind of experiment: co-IP; HSS supplemented with 85 nM purified recombinant xDnmt1-FLAGx3 (wild-type or KG linker mutant); immunoprecipitation with anti-FLAG M2 agarose or anti-Usp7 antibodies; immunoblot; only the target purified. A general note: Immunoblotting shows a protein as a band on a membrane.

For experiment [2], the target named is Xenopus Dnmt1 (endogenous, egg extracts) (Xenopus laevis (endogenous in egg extracts)) (UniProt P79922). Kind of experiment: co-IP; endogenous proteins; Protein A agarose with anti-Dnmt1, anti-Usp7, anti-Uhrf1 antibodies or control IgG incubated with HSS 1 hr at 4 °C; washed with IP buffer (20 mM HEPES-KOH pH 7.7, 50 mM KCl, 2.5 mM MgCl2, 0.1% Triton X-100); immunoblot.

B1: Xenopus Uhrf1 (endogenous, egg extracts) (enzyme, UniProt B6CHA3 1-772)
chain: MWIQVRTMDGRDTRRIDSLSKLTKVDDLRDRIQQLFGVALESQRLFYRGKQMENGHTLFDYSVGLNDIVQLLVRQIPDSFPTKHKECELSDASAGCGSGQRDSDSGSGEGAMDVDGQSISIIGENVGTSLYKKNDLVDARDLNMGAWFEAQIVNVSKKVGPYGTLPEVSDTSVTSDAIIYHVKYEDYPENGVVQLTCKDVRLRARTTLPWHEIKVGQVVMVNYNPDEPKERGYWYDAEILRKHESKKIKEIYAKVLLGDAGDSLNDCRIRFVNEIYKIEEPGSTYLNTESPQKRQNGPECKHCKDNPKRACRMCACCICGGKQDPEKQLLCDECDLAFHIYCLKPPLSVIPQDEDWYCPDCRNDASEVVLAGEKLKESKKKARMASANSSSQRDWGKGMACVGRSRECTIVPSNHYGPIPGVPVGTLWKFRVQVSESGVHRPHVAGIHGRSNDGSYSLVLAGGYEDDVDNGNEFTYTGSGGRDLSGNKRTAEQSCDQKLSNMNRALALNCSAPINDKEGSIAKDWRAGKPVRVVRNSKGRKHSKYAPEEGNRYDGIYKVVKYWPEKGKSGFLVWRYLLRRDDYEPAPWSKEGKERIKKLGLTMQYPDGYLETLASKEREKENKTEDEPIDSPSKGKRKRNSDNEQTAAKSIPKKMKVASYKLTLEQKTLIKQDVLNAKLWSEVMLFLKEGPKFVNKVEETFLCICCQEVVYEPVTTECHHNICKGCLDRSFKALVHSCPACRHDLGKNYPLNVNKPLQAILSQLFPGYESGR
Regarding B1, the binding entry in experiment [1] and in experiment [2] was “no binding” in each case.

(Values after paper PMC5427934.)
